Test results taken from the supplement of paper PMC3334620.
Over roughly 33,000 sequences, “E-score (-0.5 to 0.5)” has its median near -0.015; the highest 2% begin near 0.3. This is one part of the list.

These sequences were tested against T1, Abf1 (UniProt P14164) (assay: PBM E-score (8-mer binding enrichment) (E-score (-0.5 to 0.5)); higher = stronger / more preferred TF binding). Details: protein concentration: 200 nM; construct: GST-full length.
T1 sequence: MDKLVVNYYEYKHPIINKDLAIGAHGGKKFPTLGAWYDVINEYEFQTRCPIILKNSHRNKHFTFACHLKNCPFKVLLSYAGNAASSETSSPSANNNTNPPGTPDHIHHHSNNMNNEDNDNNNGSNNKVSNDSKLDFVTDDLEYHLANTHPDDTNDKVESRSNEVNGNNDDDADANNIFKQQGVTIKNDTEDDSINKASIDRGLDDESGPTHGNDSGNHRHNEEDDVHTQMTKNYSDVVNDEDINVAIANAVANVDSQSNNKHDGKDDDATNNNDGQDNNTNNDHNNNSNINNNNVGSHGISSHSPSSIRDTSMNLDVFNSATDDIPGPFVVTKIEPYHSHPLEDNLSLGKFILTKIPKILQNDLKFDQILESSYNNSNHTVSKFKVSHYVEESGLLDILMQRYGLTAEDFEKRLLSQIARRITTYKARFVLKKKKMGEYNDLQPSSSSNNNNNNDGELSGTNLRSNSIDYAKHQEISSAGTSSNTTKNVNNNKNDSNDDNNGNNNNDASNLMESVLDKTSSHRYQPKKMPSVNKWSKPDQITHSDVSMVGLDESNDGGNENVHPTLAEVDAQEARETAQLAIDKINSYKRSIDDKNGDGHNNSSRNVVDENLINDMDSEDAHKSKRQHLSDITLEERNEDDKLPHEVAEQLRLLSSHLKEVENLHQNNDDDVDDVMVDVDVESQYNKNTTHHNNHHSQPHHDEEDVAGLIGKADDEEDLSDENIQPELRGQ
Method in brief: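 Using PURExpress in vitro transcription/translation, GST-tagged yeast transcription factors were made in full-length or DNA-binding-domain form. These were applied at about 100-200 nM to double-stranded universal all-10-mer Agilent arrays, and bound protein was detected with fluorescent anti-GST. Scans were normalised with masliner before the Universal PBM Analysis Suite assigned E-scores to ungapped eight-base words pooled with their reverse complements.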

Sequence | PBM E-score
ATGGGCTC | -0.117
CGATCTAG | 0.0182
CAAGCTTC | -0.0849
ACGGAACA | 0.142
ACCGGCTG | -0.114
GTTATCAA | 0.143
GCGACGTA | 0.235
ACCGCGAA | -0.0629
CATACCCC | -0.205
CTTACTGC | -0.0383
CCAATAAC | 0.0417
AACGTGAA | 0.057
GGTCATAC | -0.0499
GCCCCTCA | -0.22
ATCAGCGA | -0.0614
CTTATGGA | 0.0136
AATAGCTC | -0.27
ATCGATCG | 0.242
ATGATGGA | -0.031
CGACACGC | 0.0501
ATTGTCCA | 0.208
AACAATTC | -0.151
AGGTTTAG | -0.0716
ATCTTAAC | 0.205
CAAAAAGC | -0.0206

Sequence | PBM E-score
CGCGCGGC | 0.0293
CAGGTCTC | -0.0574
TATCCCGA | 0.0509
TCGTTCAA | 0.357
GAATCCCA | -0.00947
CCTGGCAC | -0.115
AATTAGTG | 0.203
CTATTAAA | -0.0136
GGTTAACA | -0.138
CCCGGCTA | -0.275
ATTGCTGC | -0.106
CAACCCTC | -0.0344
CAGGGCCG | 0.0347
CGGAGTCA | -0.111
AGTATAAC | 0.194
AGAAGCTG | -0.231
ACCTTAGA | 0.00393
AGTAGAAC | -0.103
AGGATGCC | -0.145
ACAGATTA | -0.018
CCAGTAGA | 0.0182
CTAGAAGC | -0.119
ATCATAAC | 0.118
GGATCTTA | 0.123
AGCATTCG | 0.0444

Sequence | PBM E-score
GGGGCTGA | -0.149
TCGGAACA | 0.127
ATGACACC | 0.187
ACTCCTAG | -0.236
AGAGTCGC | -0.117
AATGGACG | 0.158
GAGCGTCC | -0.0323
CGTAGCCC | -0.116
AAGGGCCT | -0.263
AATGTTGG | -0.0056
GAAACCGC | -0.15
ATTTAACG | 0.153
ACGTATCT | -0.0664
CCAATGCC | -0.309
ATCGATTA | 0.151
GCACTACA | 0.00542
AATATCTG | 0.0517
CACTGGGA | -0.109
TAGTTCCA | -0.0461
ATTCTTCA | -0.052
AATGGTGC | -0.217
AGGGGGGA | -0.318
AGCTCCGC | -0.0452
AACAAGAC | -0.107
ACTAACGC | -0.0901

Sequence | PBM E-score
CGGTACAC | -0.0212
GACTGATA | -0.0689
GGGCATCA | -0.121
AACGGCGA | 0.327
ACTGAACC | -0.129
CTGATGTC | 0.155
ACTTGGAG | -0.00439
AGTCGACT | -0.0456
GCGCGCGA | 0.234
ACAGATGT | -0.124
GGTGCGCA | 0.0921
AGGTTTGC | -0.0309
ACTATGGC | -0.189
TATTCAAA | 0.134
ATTCGACG | 0.143
ATACCCAC | 0.102
AGTGTGGA | -0.0464
ACATTCCC | 0.17
GACGAAAC | 0.344
ATGTTTAG | 0.0544
TCTCCCAA | -0.00035
CAGCGTGA | 0.177
AGGACCGA | -0.169
AGGATTTA | 0.0407
GCTTCACC | -0.0942

Sequence | PBM E-score
CTCATCAG | 0.213
AAGATAAA | 0.132
AGTGTCAT | 0.21
CCTCTATC | -0.0168
AAGCGGTA | 0.036
ACGCGAGG | -0.0951
CCCCGGCC | -0.398
CATAACCG | -0.101
AAGGAAGT | 0.0102
ATCTTGTG | -0.056
AACAAAGC | -0.0315
CGCCTCGA | -3e-05
ATCCTCAG | 0.0499
GCAGCATA | -0.113
AGTTTCAT | 0.0393
ACGCAAAA | -0.114
CCCCTACA | -0.293
CCTTCCGA | -0.232
GGTTTTAC | -0.0809
TGACGACA | 0.361
CCCGCGCA | -0.0881
TACAGACA | 0.0696
TACATTCA | -0.0187
CCACCGCA | -0.0873
ATGCTTAC | -0.115

Sequence | PBM E-score
GCACTGGC | 0.0001
AACGGTAG | -0.0289
GAAAAGCA | -0.104
CACCAGAC | -0.0164
GATCGTGC | 0.244
CTTCGAAG | -0.105
GCAAGCAA | 0.181
AATTGGAG | -0.0849
CCGCCGCC | -0.107
ACTCGTCC | 0.274
GAGCACAA | -0.0779
CATGCGAC | 0.15
CAAATTTA | 0.0786
CTCCGTGC | 0.0314
ACAGGGAC | -0.088
AGATAGAA | -0.00652
ATCAACAG | 0.0752
GGTATATA | 0.161
AGCTCCAT | -0.235
ACACTATA | 0.0499
GTCTATAA | 0.022
CATGAGGC | -0.201
TAAACCCA | 0.0331
CTTATCGA | 0.144
ATTGGGGC | -0.095

Sequence | PBM E-score
AAGGCCCG | -0.325
AGCATATG | -0.0516
AAGATAGG | -0.151
ACAAATCG | 0.178
CCCCTCAC | -0.135
CCTAGGAC | -0.206
GAGTCAGC | -0.0946
GCGATGCC | -0.123
GTGAGCAA | 0.0803
ATTCACAC | -0.0104
GCTACGCA | -0.0831
AAGAGCGT | -0.00842
AGACATGA | 0.171
GGAACTTA | 0.0435
GCTTCTGA | -0.0397
GGCCTCCC | -0.31
ACTCCCAT | -0.029
ACTGCAGT | -0.0247
AGGGCCAG | -0.145
TGCTTCCA | -0.231
CTTCTGGA | -0.284
AGAATTCA | -0.00123
